Measured values as given in patent US20260199270A1, “METHODS FOR TREATING NEURODEGENERATIVE DISORDERS WITH TRAMIPROSATE” (Alzheon, Inc., priority 2022, published 2026).
For at least one compound, name, drawing or mass did not settle the structure.

Columns and labels:
Type in all cases: in vivo, human
[1] = Phase 2 trial of ALZ-801: composite cognitive outcome (memory and learning); conditions: 265 mg ALZ-801 twice daily; early AD, APOE4/4 or APOE3/4
[2] = tested on: plasma p-tau181; assay: Phase 2 trial of ALZ-801 in early Alzheimer's disease: plasma p-tau181; conditions: starting at 13 weeks; 265 mg ALZ-801 orally twice daily; APOE4+ early AD subjects
Description: FIG. 3 illustrates the effect on plasma p-tau181 (change from baseline) following a 52 week treatment with 265 mg ALZ-801 administered orally twice daily to subjects who are APOE4+ and have early AD.
(§1) Evaluation of disease modifying effects from phase 2 trial of ALZ-801 (valiltramiprosate) in subjects with early Alzheimer's disease were conducted. The study enrolled 84 patients, with early AD, who carry the APOE4/4 or APOE3/4 genotype and have an MMSE score ranging from 22 to 30 (CDR-G 0.5 or 1). Each patient received 265 mg ALZ-801 twice daily. The average MMSE score of the subjects was 26 (mean age 69 years, 52% female). Subjects were either amyloid PET positive or A+/T+ on CSF assays. CSF criteria were: Ratio of Aβ42/40×10<0.61, and p-tau181>61 pg/ml. CSF was evaluated at 52 weeks, and plasma biomarkers at every visit.
(§2) These effects were associated with benefits on a composite cognitive outcome that tests memory and learning. […] The HV preservation effects correlate with cognitive benefits (Spearman's coefficient r=0.27, p=0.02).

[3] = tested on: plasma Aβ40; assay: Phase 2 trial of ALZ-801 in early Alzheimer's disease: plasma Aβ40; conditions: 13 weeks; 265 mg ALZ-801 orally twice daily; APOE4+ early AD subjects
Description: FIG. 1 illustrates the effect on plasma Abeta40 (change from baseline) following a 52 week treatment with 265 mg ALZ-801 administered orally twice daily to subjects who are APOE4+ and have early AD.
as §1, §2

[4] = tested on: plasma Aβ42; assay: Phase 2 trial of ALZ-801 in early Alzheimer's disease: plasma Aβ42; conditions: 26 weeks; 265 mg ALZ-801 orally twice daily; APOE4+ early AD subjects
Description: FIG. 2 illustrates the effect on plasma Abeta42 (change from baseline) following a 52 week treatment with 265 mg ALZ-801 administered orally twice daily to subjects who are APOE4+ and have early AD.
as §1, §2

**Q.** For `CC(C)[C@H](N)C(=O)NCCCS(=O)(=O)O` [ALZ-801, valyl-3-amino-1-propanesulfonic acid], which “composite cognitive outcome that tests memory and learning” value [1] is on record?
**A.** The value was “benefits”.

**Q.** And the “plasma p-tau compared to baseline” value [2]?
**A.** The value was “significant reduction”.

**Q.** What about the “plasma Aβ40 compared to baseline levels” value [3] of the same compound?
**A.** The value was “significant early elevation”.

**Q.** What about the “plasma Aβ42 compared to baseline levels” value [4] of the same compound?
**A.** Its value is “significant elevation”.
